This note sets out measurements from publication doi:10.1101/2020.05.31.126441.

No constants are given. Whether binding was seen depends on the method and setting. Binding seen in cells or lysates may run through a third protein. Sequences can lack the tags named with a protein.

The assay has as its target T1, Snx14^FL-3XFlag (human) (UniProt Q9Y5W7).
T1 sequence: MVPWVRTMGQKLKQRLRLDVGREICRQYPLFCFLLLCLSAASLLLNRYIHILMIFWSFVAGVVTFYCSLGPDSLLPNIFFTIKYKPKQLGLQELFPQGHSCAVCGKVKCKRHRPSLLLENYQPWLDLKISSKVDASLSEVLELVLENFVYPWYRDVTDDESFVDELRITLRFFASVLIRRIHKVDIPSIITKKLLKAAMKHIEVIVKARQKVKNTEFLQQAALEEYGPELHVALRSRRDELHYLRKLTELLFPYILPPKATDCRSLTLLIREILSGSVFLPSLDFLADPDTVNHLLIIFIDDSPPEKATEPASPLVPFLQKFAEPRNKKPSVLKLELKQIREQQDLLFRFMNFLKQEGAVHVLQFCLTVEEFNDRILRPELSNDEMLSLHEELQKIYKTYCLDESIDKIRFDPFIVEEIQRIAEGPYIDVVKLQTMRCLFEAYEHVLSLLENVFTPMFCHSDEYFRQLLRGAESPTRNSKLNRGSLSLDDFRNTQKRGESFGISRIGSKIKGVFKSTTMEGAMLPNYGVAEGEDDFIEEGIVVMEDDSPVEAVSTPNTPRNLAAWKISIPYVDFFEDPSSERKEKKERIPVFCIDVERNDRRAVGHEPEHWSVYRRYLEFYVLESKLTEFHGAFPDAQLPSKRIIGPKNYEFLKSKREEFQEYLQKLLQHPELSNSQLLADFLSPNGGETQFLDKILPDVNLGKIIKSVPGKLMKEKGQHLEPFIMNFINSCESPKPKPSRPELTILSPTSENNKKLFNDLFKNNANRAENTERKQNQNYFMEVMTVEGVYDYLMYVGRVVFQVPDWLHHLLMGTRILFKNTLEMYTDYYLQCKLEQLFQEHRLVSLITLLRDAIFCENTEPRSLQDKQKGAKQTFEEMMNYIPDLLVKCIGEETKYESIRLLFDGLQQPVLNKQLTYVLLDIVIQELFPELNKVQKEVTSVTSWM
Kind of assay: co-IP.

B1: Perilipin 3 (PLIN3) (protein, UniProt O60664 1-434)
chain: MSADGAEADGSTQVTVEEPVQQPSVVDRVASMPLISSTCDMVSAAYASTKESYPHIKTVCDAAEKGVRTLTAAAVSGAQPILSKLEPQIASASEYAHRGLDKLEENLPILQQPTEKVLADTKELVSSKVSGAQEMVSSAKDTVATQLSEAVDATRGAVQSGVDKTKSVVTGGVQSVMGSRLGQMVLSGVDTVLGKSEEWADNHLPLTDAELARIATSLDGFDVASVQQQRQEQSYFVRLGSLSERLRQHAYEHSLGKLRATKQRAQEALLQLSQVLSLMETVKQGVDQKLVEGQEKLHQMWLSWNQKQLQGPEKEPPKPEQVESRALTMFRDIAQQLQATCTSLGSSIQGLPTNVKDQVQQARRQVEDLQATFSSIHSFQDLSSSILAQSRERVASAREALDHMVEYVAQNTPVTWLVGPFAPGITEKAPEEKK
For B1, the binding entry is “no binding”.
